Data taken from patent US7229621B2, “Method to enhance the immunogenicity of an antigen” (Torrey Pines Institute for Molecular Studies, priority 1998, dated 2007).
Some results were stated once for a whole list of compounds, not compound by compound.

Test system: Langerhans cells (immature dendritic cells)
Assay: FITC screening assay: Langerhans/dendritic cell migration to draining inguinal lymph node after topical FITC in acetone plus migration inducer
Format: in vivo, C57BL/6 mice
Conditions: 5 mg/ml FITC in 50/50 acetone and test compound; 2 days (FIG. 7)
From the text: Fluorescein isothiocyanate (FITC) has been used extensively by the inventor and others, to characterize Langerhans cell migration. FITC is a small (389 Da) non-peptide, largely lipophilic molecule, capable of crossing the stratum corneum. The antigenicity of FITC is due to the reactivity of its isothiocyanate group (—N═C═S) with free amino groups, permitting it to be covalently bound to proteins and/or peptides. C57BL/6 mice received the following treatments: 1) none; 2) shaving of the abdominal skin only; or shaving of the abdominal skin followed by either 3) topical administration of FITC in acetone; 4) topical administration of FITC in acetone and olive oil; 5) topical administration of FITC in acetone and DMSO diluted in phosphate buffered saline (PBS); or 6) topical administration of FITC in acetone and dibutyl phthalate. The draining inguinal lymph nodes were then examined for immigrant dendritic cells by immunofluorescent flow cytometry each day thereafter. […]
Compounds which are useful as inducers of immature dendritic cell migration may be screened using the standard FITC methods described for the data presented in FIGS. 1—3. […] After 2 days, the draining inguinal lymph nodes are removed and the total number of dendritic cells (both FITC+ and FITC−) is determined by flow cytometry and MHC class II immunofluorescence or other markers specific for dendritic cells. […]

Compound | induced migration (total MHC class II^hi cells) compared with the positive control dibutyl phthalate (DBP) [standard deviation]
CC12CCC(CC1=O)C2(C)C (centres unmarked) [C, camphor] | ≤ 1
CCCCCCCCCOC(=O)c1ccccc1C(=O)OCCCCCCCCC [DNP, dinonylphthalate] | ≤ 1
